From paper PMC11099042
No constants are given. Whether binding was seen depends on the method and setting. Binding seen in cells or lysates may run through a third protein. Some binding calls cover weakened binding; strength is not graded here.

The chains behind the UniProt entries cited, without tags or fusion partners.
UniProt P48301: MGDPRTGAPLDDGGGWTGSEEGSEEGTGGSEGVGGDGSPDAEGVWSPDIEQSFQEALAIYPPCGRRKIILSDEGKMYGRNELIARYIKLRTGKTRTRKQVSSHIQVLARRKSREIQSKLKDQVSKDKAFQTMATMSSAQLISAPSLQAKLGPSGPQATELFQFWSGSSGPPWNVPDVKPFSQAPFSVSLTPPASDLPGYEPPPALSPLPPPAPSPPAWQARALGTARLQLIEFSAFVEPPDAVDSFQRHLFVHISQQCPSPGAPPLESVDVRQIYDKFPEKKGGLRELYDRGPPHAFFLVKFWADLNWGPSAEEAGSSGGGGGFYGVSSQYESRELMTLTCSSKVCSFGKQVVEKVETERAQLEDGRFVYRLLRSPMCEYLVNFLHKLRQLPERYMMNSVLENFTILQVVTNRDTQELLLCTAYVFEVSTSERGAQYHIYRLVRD

Target: TEAD2 (UniProt P48301)
Test: co-IP; FLAG- and HA-tagged TEAD2 co-expressed in cells; FLAG IP on M2 magnetic beads at 4 °C for 16 h; lysis buffer 20 mM Tris-HCl pH 7.5, 0.1% Triton X-100, 300 mM KCl, 5 mM EDTA; four washes with 500 mM KCl; immunoblot

binding: binds
Substance: TEAD2 (from UniProt P48301 1-445)
